Among the data in article PMC10157730 are binding values, retold here.

By UniProt entry, the sequences of proteins in these tests, tags left out.
UniProt P52631: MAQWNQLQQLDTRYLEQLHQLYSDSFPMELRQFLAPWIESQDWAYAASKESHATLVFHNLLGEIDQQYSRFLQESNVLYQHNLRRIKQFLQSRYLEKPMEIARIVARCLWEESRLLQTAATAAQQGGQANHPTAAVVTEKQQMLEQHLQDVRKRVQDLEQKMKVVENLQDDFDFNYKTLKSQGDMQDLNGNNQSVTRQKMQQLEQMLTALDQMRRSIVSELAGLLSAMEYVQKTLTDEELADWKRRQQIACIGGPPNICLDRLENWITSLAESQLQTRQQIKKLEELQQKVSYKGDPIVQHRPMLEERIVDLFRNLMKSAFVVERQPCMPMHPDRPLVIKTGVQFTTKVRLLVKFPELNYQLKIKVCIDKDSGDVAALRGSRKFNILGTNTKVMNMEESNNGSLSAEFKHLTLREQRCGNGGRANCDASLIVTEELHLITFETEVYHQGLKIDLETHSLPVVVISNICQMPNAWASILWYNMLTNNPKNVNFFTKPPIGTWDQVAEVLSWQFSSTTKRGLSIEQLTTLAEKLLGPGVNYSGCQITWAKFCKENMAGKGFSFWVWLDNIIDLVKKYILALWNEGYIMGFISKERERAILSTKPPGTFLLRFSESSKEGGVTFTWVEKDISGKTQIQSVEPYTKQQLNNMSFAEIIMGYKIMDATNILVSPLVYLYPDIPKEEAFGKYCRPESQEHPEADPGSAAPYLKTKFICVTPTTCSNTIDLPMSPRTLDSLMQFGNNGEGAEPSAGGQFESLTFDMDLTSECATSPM

No constants are given. Whether binding was seen depends on the method and setting. Binding seen in cells or lysates may run through a third protein. These calls come from enrichment with a bait or labelling near it, and not all partners need be listed.

This assay concerns the target T1, OTU Domain-Containing Protein 1 (OTUD1), endogenous in neonatal rat ventricular myocytes (rat (endogenous in neonatal rat ventricular myocytes)) (UniProt D3ZNC0).
T1 sequence: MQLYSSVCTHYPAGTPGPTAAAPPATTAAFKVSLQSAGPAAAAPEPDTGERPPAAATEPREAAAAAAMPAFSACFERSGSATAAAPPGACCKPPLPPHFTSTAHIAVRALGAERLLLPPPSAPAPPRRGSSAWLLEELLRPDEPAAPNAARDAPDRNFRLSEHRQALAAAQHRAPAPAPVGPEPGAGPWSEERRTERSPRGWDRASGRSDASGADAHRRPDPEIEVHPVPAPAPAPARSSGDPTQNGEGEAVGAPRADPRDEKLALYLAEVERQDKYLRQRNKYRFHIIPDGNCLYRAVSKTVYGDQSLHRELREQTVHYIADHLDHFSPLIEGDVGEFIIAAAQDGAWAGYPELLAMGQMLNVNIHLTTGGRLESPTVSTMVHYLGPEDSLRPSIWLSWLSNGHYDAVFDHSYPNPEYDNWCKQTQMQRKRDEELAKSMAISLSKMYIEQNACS
Description: affinity purification with mass spectrometry; anti-OTUD1 antibody added to NVRM lysates for IP, rabbit IgG as negative control, LC-MS/MS.

Take “signal transducer and activator of transcription 3 (STAT3), endogenous in neonatal rat ventricular myocytes (from UniProt P52631 1-770)”: the binding entry is “binds”.
